No constants are given. Whether binding was seen depends on the method and setting. Some entries that bind do so weakly or less than the wild type.
How the values were obtained:
[1] = biological target: recombinant human OX40-Fc protein (human) (UniProt P43489); experiment: blocking ELISA on coated human OX40-Fc; blocked ligand: biotinylated recombinant human OX40L, streptavidin-HRP detection
[2] = biological target: chimeric HHRR OX40 protein (Fc fusion) (human-rat chimera; human); experiment: ELISA on coated OX40 Fc fusion (2 µg/mL), anti-human F(ab')2-HRP detection; antibody concentration not given
[3] = biological target: recombinant human OX40-Fc protein (human) (UniProt P43489); experiment: as above
[4] = biological target: chimeric RHRR OX40 protein (Fc fusion) (human-rat chimera; human); experiment: as above
[5] = biological target: chimeric HHRR OX40 protein (Fc fusion) (human-rat chimera; human); experiment: binding ELISA on coated OX40 Fc fusion
[6] = biological target: recombinant human OX40-Fc protein (human) (UniProt P43489); experiment: binding ELISA on coated OX40 Fc fusion
[7] = biological target: chimeric RHRR OX40 protein (Fc fusion) (human-rat chimera; human); experiment: binding ELISA on coated OX40 Fc fusion

The chains behind the UniProt entries cited, without tags or fusion partners. Where a name states a change or a piece, a line headed by the entry shows the natural chain unless it says otherwise.
UniProt P43489: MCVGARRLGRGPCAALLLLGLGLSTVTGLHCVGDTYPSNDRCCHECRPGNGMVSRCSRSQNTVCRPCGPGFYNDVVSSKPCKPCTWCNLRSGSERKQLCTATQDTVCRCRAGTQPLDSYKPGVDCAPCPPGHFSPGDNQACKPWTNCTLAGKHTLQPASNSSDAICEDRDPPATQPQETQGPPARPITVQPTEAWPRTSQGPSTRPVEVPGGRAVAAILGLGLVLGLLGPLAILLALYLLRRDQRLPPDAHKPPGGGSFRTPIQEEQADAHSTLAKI

Measured: binding

B1: chimeric 1D4 antibody (antibody, human IgG1, kappa, V domains shown)
VH: QVTLKESGPGILQPSQTLSLTCSFSGFSLSTSGMGVGWIRQPSGKGLEWLAHIWWDDDKYYNTALKSGLTISKDTSKNQVFLKIASVDTTDTATYYCARIDWDGFAYWGQGTLVTVSS
VL: QIVLTQSPAILSASPGEKVTMTCRASSSVSYMHWYQQKPGSSPKPWIYATSNLASGVPARFSGSGSGTSYSLTINRVEAEDAATYYCQQWSSNPWTFGGGTKLEIKR
binds: [1]

B2: VH6/VL9 antibody (antibody, human IgG1, kappa, V domains shown)
VH: QVTLKESGPALVKPTQTLTLTCSFSGFSLSTSGMGVGWIRQPPGKALEWIAHIWWDDDKYYNTALKTRLTISKDTSKNQVVLTMTNMDPVDTATYYCARIDWDGFAYWGQGTLVTVSS
VL: EIVLTQSPATLSLSPGERATLSCRASSSVSYMHWYQQKPGQAPRPWIYATSNRATGIPARFSGSGSGTDYTLTISSLEPEDFAVYYCQQWSSNPWTFGQGTKVEIKR
not listed: [1]
binds: all other assays above

From US20130183315A1
